Measured values from PMC4231120.

Biological target: T1, PLASMODESMATA-LOCATED PROTEIN 1 (PDLP1) fused to GFP (Arabidopsis) (UniProt Q8GXV7)
T1 sequence: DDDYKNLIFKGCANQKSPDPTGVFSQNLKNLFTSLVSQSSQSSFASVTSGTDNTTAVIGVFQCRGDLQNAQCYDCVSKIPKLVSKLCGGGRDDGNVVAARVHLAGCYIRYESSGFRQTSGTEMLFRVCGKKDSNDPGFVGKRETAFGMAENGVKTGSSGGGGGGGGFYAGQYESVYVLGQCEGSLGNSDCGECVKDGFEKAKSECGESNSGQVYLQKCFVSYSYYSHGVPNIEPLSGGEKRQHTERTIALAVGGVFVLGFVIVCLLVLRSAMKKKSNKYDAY
Test: affinity purification with mass spectrometry; PDLP1-GFP immunoprecipitated with GFP-Trap beads from leaf extracts of PDLP1 OE plants, Hpa-infected and uninfected; 50 mM Tris-HCl pH 7.5, 150 mM NaCl, 10% glycerol, 1 mM EDTA, 5 mM DTT, 1% IGEPAL CA630; 4°C, 2 h; bands from SDS-PAGE analysed by LC-MS/MS; at least three replicate IPs

B1: PATELLIN 1 (PATL1) (protein, UniProt Q56WK6 1-573)
chain: MAQEEVQKSADVAAAPVVKEKPITDKEVTIPTPVAEKEEVAAPVSDEKAVPEKEVTPEKEAPAAEAEKSVSVKEEETVVVAEKVVVLTAEEVQKKALEEFKELVREALNKREFTAPVTPVKEEKTEEKKTEEETKEEEKTEEKKEETTTEVKVEEEKPAVPAAEEEKSSEAAPVETKSEEKPEEKAEVTTEKASSAEEDGTKTVEAIEESIVSVSPPESAVAPVVVETVAVAEAEPVEPEEVSIWGVPLLQDERSDVILTKFLRARDFKVKEALTMLKNTVQWRKENKIDELVESGEEVSEFEKMVFAHGVDKEGHVVIYSSYGEFQNKELFSDKEKLNKFLSWRIQLQEKCVRAIDFSNPEAKSSFVFVSDFRNAPGLGKRALWQFIRRAVKQFEDNYPEFAAKELFINVPWWYIPYYKTFGSIITSPRTRSKMVLAGPSKSADTIFKYIAPEQVPVKYGGLSKDTPLTEETITEAIVKPAANYTIELPASEACTLSWELRVLGADVSYGAQFEPTTEGSYAVIVSKTRKIGSTDEPVITDSFKVGEPGKIVITIDNQTSKKKKVLYRFKTQ
  binding: binds

These are yes or no findings as the source states them, for the method shown. Binding seen in cells or lysates may run through a third protein. A yes stands for co-enrichment or nearness to the bait. Other partners may have been found. Where a sequence is shown, tags or fusion partners need not be part of it.
